Drawing on PMC11628618, this text covers binding for three molecules.

Sequences of proteins named here, by UniProt entry; tags and fusion partners are left off. A change or cut given only in a name is not applied to a line headed by its entry.
UniProt V6F519: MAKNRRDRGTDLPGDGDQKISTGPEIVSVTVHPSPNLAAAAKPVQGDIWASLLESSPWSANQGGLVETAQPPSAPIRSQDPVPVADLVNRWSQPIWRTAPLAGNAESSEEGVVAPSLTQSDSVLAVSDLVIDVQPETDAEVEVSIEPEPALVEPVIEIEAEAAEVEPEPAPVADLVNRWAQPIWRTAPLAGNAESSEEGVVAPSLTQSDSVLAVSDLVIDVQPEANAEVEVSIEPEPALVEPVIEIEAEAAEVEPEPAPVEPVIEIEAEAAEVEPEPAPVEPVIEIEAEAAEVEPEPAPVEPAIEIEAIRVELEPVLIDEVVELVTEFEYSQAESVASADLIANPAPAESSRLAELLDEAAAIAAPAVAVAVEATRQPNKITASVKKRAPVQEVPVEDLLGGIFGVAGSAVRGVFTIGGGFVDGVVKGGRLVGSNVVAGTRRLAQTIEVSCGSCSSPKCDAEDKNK

No constants are given. Whether binding was seen depends on the method and setting. For some of these results: Binding can be weak; no strength is given. For some of these results: Sequences can lack the tags named with a protein.

What all share (experiment): two-hybrid; adenylate cyclase-based bacterial two-hybrid (BACTH), T18 and T25 fusions co-transformed into E. coli BTH101; spotted on M63 maltose/X-Gal/IPTG agar, 28 °C, one day; only homogeneous intense blue counted as positive
The target of assay [1] is T1, MmsF, bacterial two-hybrid fusion (Magnetospirillum gryphiswaldense MSR-1) (UniProt A4U547).
T1 sequence: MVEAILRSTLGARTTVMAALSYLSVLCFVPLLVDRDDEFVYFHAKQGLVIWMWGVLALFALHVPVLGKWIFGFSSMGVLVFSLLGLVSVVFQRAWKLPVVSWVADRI

Assay [2] addresses T2, MamF, bacterial two-hybrid fusion (Magnetospirillum gryphiswaldense MSR-1) (UniProt Q6NE74).
T2 sequence: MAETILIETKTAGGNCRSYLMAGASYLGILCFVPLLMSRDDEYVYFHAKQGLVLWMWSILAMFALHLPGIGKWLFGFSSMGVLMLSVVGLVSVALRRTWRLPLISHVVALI

Assay [3] has as its target MmxF, bacterial two-hybrid fusion (Magnetospirillum gryphiswaldense MSR-1).

On to “MamJ C-terminus (aa 334-426), bacterial two-hybrid fusion (from UniProt V6F519) (domain or fragment)”, for which the binding entry in assay [1] is on record as “binds”; in assay [2] it was “no binding”.

B1: MamG (protein, UniProt Q6NE75 1-84)
chain: MIKGIAGVGGTALGVGGGVAAPPVSAAAVGSTLLAGKGVCLGLGLGLGAWGPVLLGVAGLACAASLCDYLKNRKAQAEASAEPA
Regarding B1, the binding entry in assay [3] is “no binding”.

B2: Mms6 (protein, UniProt Q6NE76 1-136)
chain: MGEMEREGATAKVGAGKVGAGKVGAAKAGAAPAAAQGAGTKVVAAQGAGTKVVAAQGAGAKAAAVGVGKVGAGAKAVGGTIWSGKGLALGLGMGLGAWGPLILGVVGAGAVYAYMKSRDIEAAQSDEEVELRDALS
Consider B2, for which, in assay [3], the binding entry is “no binding”.
